Measurements published in patent US20260201335A1, “A Method to Generate Cardiac Pericytes from Human Induced Pluripotent Stem Cells” (The Board of Trustees of the Leland Stanford Junior …, priority 2022, published 2026).
Where two headings read alike, the source gives them in different places. At least one structure is not confirmed: it was looked up by name or label, or the drawing left a doubt.

Test system: iPSC-CP proliferation
Assay: BrdU incorporation assay
Type: cell-based, human

With `CCN(CC)CCNC(=O)c1c(C)[nH]c(/C=C2\C(=O)Nc3ccc(F)cc32)c1C` [sunitinib] the iPSC-CP proliferation was “suppressed iPSC-CP proliferation” and the iPSC-CP proliferation (listed as Sunitinib) was “significantly suppressed iPSC-CP proliferation in a dose-dependent manner”.
